No constants are given. Whether binding was seen depends on the method and setting. Binding seen in cells or lysates may run through a third protein. Some binding calls cover weakened binding; strength is not graded here.

The chains behind the UniProt entries cited, without tags or fusion partners.
UniProt P08047: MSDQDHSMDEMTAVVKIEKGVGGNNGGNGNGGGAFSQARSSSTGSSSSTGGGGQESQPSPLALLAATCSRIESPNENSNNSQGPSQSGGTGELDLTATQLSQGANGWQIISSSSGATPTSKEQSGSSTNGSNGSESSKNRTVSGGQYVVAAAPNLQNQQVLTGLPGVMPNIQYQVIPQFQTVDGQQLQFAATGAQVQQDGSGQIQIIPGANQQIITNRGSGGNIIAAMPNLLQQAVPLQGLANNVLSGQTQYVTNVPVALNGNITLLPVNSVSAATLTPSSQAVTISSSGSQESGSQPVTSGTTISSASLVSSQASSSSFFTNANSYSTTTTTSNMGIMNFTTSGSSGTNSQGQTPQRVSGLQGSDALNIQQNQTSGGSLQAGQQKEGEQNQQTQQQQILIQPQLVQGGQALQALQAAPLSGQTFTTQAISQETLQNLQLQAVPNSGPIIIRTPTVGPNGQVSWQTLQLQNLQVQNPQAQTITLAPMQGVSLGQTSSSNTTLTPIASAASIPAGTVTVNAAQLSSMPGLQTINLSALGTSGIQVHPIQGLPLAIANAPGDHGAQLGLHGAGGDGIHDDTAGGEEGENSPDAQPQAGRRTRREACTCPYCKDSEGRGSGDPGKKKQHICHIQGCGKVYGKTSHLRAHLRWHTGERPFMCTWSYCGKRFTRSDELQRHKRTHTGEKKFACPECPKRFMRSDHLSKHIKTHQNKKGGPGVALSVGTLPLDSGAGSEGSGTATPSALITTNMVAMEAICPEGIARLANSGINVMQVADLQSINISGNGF
UniProt Q92793: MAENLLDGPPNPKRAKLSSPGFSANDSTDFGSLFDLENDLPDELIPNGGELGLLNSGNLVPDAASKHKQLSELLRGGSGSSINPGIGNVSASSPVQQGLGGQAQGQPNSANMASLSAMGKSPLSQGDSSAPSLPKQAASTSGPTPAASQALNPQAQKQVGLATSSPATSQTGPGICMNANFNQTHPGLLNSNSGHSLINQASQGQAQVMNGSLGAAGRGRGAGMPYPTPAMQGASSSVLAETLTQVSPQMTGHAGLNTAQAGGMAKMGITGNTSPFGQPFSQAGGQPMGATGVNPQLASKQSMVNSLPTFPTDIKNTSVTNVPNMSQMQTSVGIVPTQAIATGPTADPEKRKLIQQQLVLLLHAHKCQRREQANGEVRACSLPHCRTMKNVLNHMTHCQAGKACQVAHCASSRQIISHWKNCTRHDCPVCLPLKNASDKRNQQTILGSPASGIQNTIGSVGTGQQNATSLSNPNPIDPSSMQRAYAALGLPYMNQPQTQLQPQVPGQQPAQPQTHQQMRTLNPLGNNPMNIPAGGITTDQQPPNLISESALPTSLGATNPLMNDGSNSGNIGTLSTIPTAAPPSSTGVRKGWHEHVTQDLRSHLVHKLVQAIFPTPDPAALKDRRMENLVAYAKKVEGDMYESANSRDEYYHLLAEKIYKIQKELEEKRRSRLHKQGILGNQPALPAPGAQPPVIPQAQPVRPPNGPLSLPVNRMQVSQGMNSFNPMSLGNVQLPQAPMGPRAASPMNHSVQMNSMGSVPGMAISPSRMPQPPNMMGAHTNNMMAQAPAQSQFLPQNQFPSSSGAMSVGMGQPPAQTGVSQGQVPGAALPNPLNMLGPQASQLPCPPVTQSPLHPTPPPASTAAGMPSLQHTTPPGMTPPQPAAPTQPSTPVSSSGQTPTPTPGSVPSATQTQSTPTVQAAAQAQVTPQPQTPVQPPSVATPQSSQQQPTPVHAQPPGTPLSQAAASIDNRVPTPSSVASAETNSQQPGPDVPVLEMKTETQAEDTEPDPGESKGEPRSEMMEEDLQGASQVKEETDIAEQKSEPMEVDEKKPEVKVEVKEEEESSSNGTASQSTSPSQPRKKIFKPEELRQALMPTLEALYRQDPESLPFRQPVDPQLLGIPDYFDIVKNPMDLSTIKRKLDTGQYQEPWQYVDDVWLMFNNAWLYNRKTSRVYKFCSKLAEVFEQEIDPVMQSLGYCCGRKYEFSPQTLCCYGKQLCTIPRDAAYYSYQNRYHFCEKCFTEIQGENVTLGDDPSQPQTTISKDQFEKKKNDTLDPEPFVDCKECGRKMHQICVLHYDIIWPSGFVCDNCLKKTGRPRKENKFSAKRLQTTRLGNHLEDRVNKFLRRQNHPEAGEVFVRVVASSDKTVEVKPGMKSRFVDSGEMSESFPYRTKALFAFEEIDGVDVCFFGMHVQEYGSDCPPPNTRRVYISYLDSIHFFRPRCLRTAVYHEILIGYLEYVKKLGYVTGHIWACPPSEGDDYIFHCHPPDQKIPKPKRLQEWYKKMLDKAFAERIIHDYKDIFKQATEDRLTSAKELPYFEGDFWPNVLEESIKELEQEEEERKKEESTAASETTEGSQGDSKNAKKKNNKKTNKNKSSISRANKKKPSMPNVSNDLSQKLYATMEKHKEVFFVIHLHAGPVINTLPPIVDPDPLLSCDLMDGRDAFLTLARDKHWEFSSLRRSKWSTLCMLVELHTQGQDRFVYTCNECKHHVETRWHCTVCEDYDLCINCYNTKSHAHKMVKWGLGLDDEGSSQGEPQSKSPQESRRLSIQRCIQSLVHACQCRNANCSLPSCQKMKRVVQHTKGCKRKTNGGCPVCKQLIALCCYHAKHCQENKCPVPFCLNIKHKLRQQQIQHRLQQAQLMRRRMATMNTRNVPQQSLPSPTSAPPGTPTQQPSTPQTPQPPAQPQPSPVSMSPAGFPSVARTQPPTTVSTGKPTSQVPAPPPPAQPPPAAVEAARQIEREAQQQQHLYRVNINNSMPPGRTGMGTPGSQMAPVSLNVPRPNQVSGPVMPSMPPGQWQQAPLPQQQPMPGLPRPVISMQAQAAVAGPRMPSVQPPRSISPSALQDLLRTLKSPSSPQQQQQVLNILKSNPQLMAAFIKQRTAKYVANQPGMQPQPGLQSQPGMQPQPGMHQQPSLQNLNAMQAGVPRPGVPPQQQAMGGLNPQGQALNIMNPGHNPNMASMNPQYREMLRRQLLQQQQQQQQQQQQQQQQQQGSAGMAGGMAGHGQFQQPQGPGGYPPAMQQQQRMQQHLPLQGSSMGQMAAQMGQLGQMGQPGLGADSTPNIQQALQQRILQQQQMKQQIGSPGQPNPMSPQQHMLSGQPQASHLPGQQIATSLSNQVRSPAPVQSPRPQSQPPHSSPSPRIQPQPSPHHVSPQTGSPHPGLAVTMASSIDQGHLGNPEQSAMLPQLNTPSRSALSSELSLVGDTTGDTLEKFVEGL

For the test, the target named is specificity protein 1 (Sp1) (human (endogenous in HLF, HBE, H1299, A549)) (UniProt P08047). In words: co-IP; nuclear extracts of HLF, HBE, H1299 and A549 cells incubated with an antibody against Sp1 or AP-2β for 24 h at 4°C, protein-A/G agarose beads 12 h at 4°C, washed with cold PBS; immunoblot for CBP. (In general: A western blot detects proteins with antibodies after separation by electrophoresis.)

“CREB-binding protein (CBP) (from UniProt Q92793 1-2442)”: the binding entry is given as “binds”.
